Some of the results follow.
These sequences were tested against OsWRKY34 (Oryza sativa, UniProt Q0JBA9 1-250) (assay: protein-binding microarray (RPBM); PBS, 2% BSA, 51.3 ng/ul salmon testes DNA, 50 uM zinc acetate, 200 nM TF, 25 C, 1 h; high values mean tight binding). Conditions: protein: recombinant; tags: N-terminal polyhistidine and DsRed monomer fusion (pET32a); label: CyDye5-dUTP incorporated in the synthesized complementary strand; 3' TTTTT single-stranded linker to array surface; dsDNA, one strand shown.
How it was run: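 Polyhistidine-tagged DsRed fusions of transcription factors, joined at the N-terminus, were expressed in E. coli BL21-CodonPlus and isolated on Ni–NTA. They were incubated at 200 nM for 1 h at 25 °C on a custom Agilent array, double-stranded and BSA-blocked, in PBS with 2% BSA, salmon testes DNA and 50 µM zinc acetate. The binding signal is per-feature fluorescence intensity (arbitrary units) read on an Axon 4000B scanner after washing.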

Protein sequences, listed by entry. Tags and fused reporters are not part of them.
UniProt Q0JBA9, entry or part of it: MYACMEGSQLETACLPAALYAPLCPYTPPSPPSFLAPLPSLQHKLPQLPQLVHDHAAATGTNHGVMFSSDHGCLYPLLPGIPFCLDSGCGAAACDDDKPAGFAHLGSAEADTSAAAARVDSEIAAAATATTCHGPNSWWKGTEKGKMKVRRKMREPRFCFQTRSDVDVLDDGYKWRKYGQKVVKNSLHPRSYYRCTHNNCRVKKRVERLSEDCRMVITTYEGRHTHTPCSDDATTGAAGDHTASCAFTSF

| Sequence | binding signal |
| --- | --- |
| GAGTTGTTACTGATGTGGGTTTACTGAATTCTGTCAATACCGGAGTCACCTAGTGCAG | 11100 fluorescence intensity (a.u.) |
| CATTACCCTTTACTTGCAAATCAAGTCCAATTCATGTTTCCGGAGTCACCTAGTGCAG | 9660 fluorescence intensity (a.u.) |
| ACTCCATCAATTTTTCATTATGTCTGTGTTTGTCCTGACTCGGAGTCACCTAGTGCAG | 14900 fluorescence intensity (a.u.) |
| GCGTCAATTAGTGCCTCTCTCTGTATGCATTCTTCCTATTCGGAGTCACCTAGTGCAG | 10300 fluorescence intensity (a.u.) |
| TATACCCTCACCATCCAATCAACTACTATTATTGTTTTCTCGGAGTCACCTAGTGCAG | 8200 fluorescence intensity (a.u.) |
| CCCATATAGGAGATATTTGTGTTTTGTTGATCGAGCCACCCGGAGTCACCTAGTGCAG | 9370 fluorescence intensity (a.u.) |
| TTTTGGTTGTTGTGATCCCTGTGGGGCTCGGGTTCCGGCCCGGAGTCACCTAGTGCAG | 8150 fluorescence intensity (a.u.) |
| ACCTTTTCTTAAATTTCTCATGTTTTTCCCGTTGCAATGCCGGAGTCACCTAGTGCAG | 9070 fluorescence intensity (a.u.) |
| AGCATGCTCTAGGAGTTGGCTTTGCGTTGGTTCTGAGGGTCGGAGTCACCTAGTGCAG | 8200 fluorescence intensity (a.u.) |
| TACATTAAGTACCACACTCCAGGCCTCATCTTCTACTCCCCGGAGTCACCTAGTGCAG | 8240 fluorescence intensity (a.u.) |
| ACGCGCTCAGACAAGCATCCTACCACTACTAGTCGCTATACGGAGTCACCTAGTGCAG | 8080 fluorescence intensity (a.u.) |
| GCATCTGCGCTACATTCTCCATGGTGGGTCTTTTGCTTCTCGGAGTCACCTAGTGCAG | 8070 fluorescence intensity (a.u.) |
| AGTACATTTATTTTGGGCTATTTATTTGTACACGTCAAGACGGAGTCACCTAGTGCAG | 9940 fluorescence intensity (a.u.) |
| CAATTGGCTCCTACCCGTTATCTTTGTGTTTCCATCCAGTCGGAGTCACCTAGTGCAG | 9290 fluorescence intensity (a.u.) |
| TTCTTTCCGTTGTGCTTGCTGCTTTTCTCTACTACCTTTTCGGAGTCACCTAGTGCAG | 9900 fluorescence intensity (a.u.) |
| CACCGGCTTCCCTCAATTTACCACTGGTCTCAGTGCTAGCCGGAGTCACCTAGTGCAG | 9320 fluorescence intensity (a.u.) |
| AAATTCCCGGGCTTTTTTTCTTTTGCTTGCTTCCTTTGCTCGGAGTCACCTAGTGCAG | 10800 fluorescence intensity (a.u.) |
| CATAAACAGGAACACCATTGTCTGTATGTTACTTGTTTACCGGAGTCACCTAGTGCAG | 8850 fluorescence intensity (a.u.) |
| GCTTCGTTGTACTAGGTCCTTTTAGATTATTTTTTTTATGCGGAGTCACCTAGTGCAG | 10500 fluorescence intensity (a.u.) |
| TTGTGGGTCTCCTATTTTTGGGGTTGATCTTCCTCCTTCCCGGAGTCACCTAGTGCAG | 9420 fluorescence intensity (a.u.) |
| GTTTCTCTTTTATCCTACTAACTACTCCACTAATTGATTTCGGAGTCACCTAGTGCAG | 8490 fluorescence intensity (a.u.) |

| Sequence | binding signal |
| --- | --- |
| CACCCTTATTTATTGGTTTTTTTGCTTTTGGTCGGTGTTTCGGAGTCACCTAGTGCAG | 10100 fluorescence intensity (a.u.) |
| ACTACCACACCGACCCGAGCCAGCTCCCTTCATTCATCTCCGGAGTCACCTAGTGCAG | 11500 fluorescence intensity (a.u.) |
| ATCATATCCACACACACACATCTTCCTAAACTACATTTTACGGAGTCACCTAGTGCAG | 8110 fluorescence intensity (a.u.) |
| AGGTTTGAGTACTCATTTTGCAACTTAGCGTATATTTTTACGGAGTCACCTAGTGCAG | 8860 fluorescence intensity (a.u.) |
| TGTTCGATCTCCTGCCCAGGCACGCGCTTGCCATCGTAACCGGAGTCACCTAGTGCAG | 8120 fluorescence intensity (a.u.) |
| AACTTTTCCGTCACATCGTTTCAATTTCAATCAAACTTTCCGGAGTCACCTAGTGCAG | 10300 fluorescence intensity (a.u.) |
| GACCGCTGCACTTTCATCAACCCGTCCTCTACGAACTCATCGGAGTCACCTAGTGCAG | 8240 fluorescence intensity (a.u.) |
| TTATGGGGATCTCATCCTTTCTTATTTTTCTTCGTTTCATCGGAGTCACCTAGTGCAG | 9640 fluorescence intensity (a.u.) |
| TCCCATTCAATATCTTCTGCTGTATTTCTGCAAGTAAAAACGGAGTCACCTAGTGCAG | 8130 fluorescence intensity (a.u.) |
| TAGTTACATATTACACTATTAATACCTAGTCCCATCTGTCCGGAGTCACCTAGTGCAG | 9340 fluorescence intensity (a.u.) |
| CATTCGTTTTTCCATCTGCCCAATGTTTTTTCTCGTACTCCGGAGTCACCTAGTGCAG | 10200 fluorescence intensity (a.u.) |
| CTCTCTACCGGCTTAACCACTTTGCCACTTTGGCCTTTCACGGAGTCACCTAGTGCAG | 8160 fluorescence intensity (a.u.) |
| TGATGCCGTTGACTTTTTCTCATATGTTTGACCATTCGTCCGGAGTCACCTAGTGCAG | 44800 fluorescence intensity (a.u.) |
| CCGATGATAGCTCTCGATTTAGTGGCCGCCGCAAGACTTCCGGAGTCACCTAGTGCAG | 8240 fluorescence intensity (a.u.) |
| GCGAATCCTATCAACTTGCGTTTGGTCGGCTAATTCTAACCGGAGTCACCTAGTGCAG | 9380 fluorescence intensity (a.u.) |
| CCATCTCCTCCATTGCCGTCGTTTGAAATTCAGGTAGAACCGGAGTCACCTAGTGCAG | 8120 fluorescence intensity (a.u.) |
| TTGCACCAATAAATACACCCTTGGTCAACACGGATGCTTTCGGAGTCACCTAGTGCAG | 8900 fluorescence intensity (a.u.) |
| CGGTGAACGAGGAGGTGCTGGGGCTGGTGGTGTTCAAGTCCGGAGTCACCTAGTGCAG | 8970 fluorescence intensity (a.u.) |
| AGATCGCGCTTCCACGGTTCCACCTACACCGCATCACGTGCGGAGTCACCTAGTGCAG | 9760 fluorescence intensity (a.u.) |
| ATTTATTTTGGGATGGGGAGGGAGACAACTACAGTGTTTCCGGAGTCACCTAGTGCAG | 18200 fluorescence intensity (a.u.) |
| GAGCGCGCGCGTTGGGCGGGAGGGGTTTGGTTGGTGAGCGCGGAGTCACCTAGTGCAG | 11800 fluorescence intensity (a.u.) |

3 entries from above in a different format:
Sequence,binding signal
AGTACATTTATTTTGGGCTATTTATTTGTACACGTCAAGACGGAGTCACCTAGTGCAG,9940 fluorescence intensity (a.u.)
CAATTGGCTCCTACCCGTTATCTTTGTGTTTCCATCCAGTCGGAGTCACCTAGTGCAG,9290 fluorescence intensity (a.u.)
TTCTTTCCGTTGTGCTTGCTGCTTTTCTCTACTACCTTTTCGGAGTCACCTAGTGCAG,9900 fluorescence intensity (a.u.)

From article PMC7819943, “Rice protein-binding microarrays: a tool to detect cis-acting elements near promoter regions in rice”
